Measured values from PMC6197697.
Weaker means in comparison with the reference protein, sequence or condition of that experiment.

The chains behind the UniProt entries cited, without tags or fusion partners. Where a name states a change or a piece, a line headed by the entry shows the natural chain unless it says otherwise.
UniProt Q84NC5: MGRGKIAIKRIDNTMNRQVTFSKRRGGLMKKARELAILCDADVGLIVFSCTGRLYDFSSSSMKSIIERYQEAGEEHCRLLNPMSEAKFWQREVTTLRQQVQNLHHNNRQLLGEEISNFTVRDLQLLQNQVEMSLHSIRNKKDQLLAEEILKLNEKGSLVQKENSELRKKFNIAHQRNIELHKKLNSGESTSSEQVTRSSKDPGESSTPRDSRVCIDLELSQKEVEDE

Target: His-OsMADS25 (Oryza sativa) (UniProt Q84NC5)
Assay: EMSA
Conditions: 5 mM Mg2+; 10 mM Tris pH 7.5, 50 mM KCl, 1 mM DTT, 2.5% glycerol, 5 mM MgCl2, 0.05% NP-40, 50 ng/ul poly(dI-dC), 30 ng protein, 400 fmol probe in 20 ul; recombinant protein; residues 1-227; protein details: His (pET32a fusion); label: biotin 3' end

“CATGCTGTGATAAATTAATATTTGACCAGCC (double strand) [Mut-OsGST4 probe]”: binds more weakly.
